Where a name gives a salt, the structure may show the parent alone. ± gives the standard deviation of the averaged measurements. This is one part of the list. Values are raw readings; no control value is given beside them.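 HeLa cells imaged for ribosome-assembly readouts (ENP1 staining with or without export block, or inducible tagged ribosomal protein reporters); machine learning classified each cell's signal location against solvent (DMSO) controls. Hits exceeded the DMSO false-positive mean by five standard deviations, then were visually confirmed; three biological replicates.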

39 molecules from the supplement of paper PMC12542422 can be followed below.

The subject of one experiment is HeLa RPS2-YFP reporter. Briefly: fraction of reporter-positive cells with nuclear (nucleolar or nucleolar/nucleoplasmic) RPS2-YFP (MainHitrate); higher = more cells with nucleolar/nuclear readout signal (for ENP1 -LMB: less RNAPI inhibition; for +LMB ENP1 and RP reporters: stronger nuclear/nucleolar retention, i.e. ribosome biogenesis defect). Conditions: concentration: 1 µM; treatment time: 6 h.
Consider `C=C1c2c(Cl)ccc(O)c2C(=O)C2=C(O)[C@]3(O)C(=O)C(C(N)=O)=C(O)[C@@H](N(C)C)[C@@H]3[C@@H](O)[C@H]12.O=C(O)c1cc(S(=O)(=O)O)ccc1O` [Meclocycline Sulfosalicylate], for which the “fraction of reporter-positive cells with nuclear” value (shortened to “fraction”) stood at 0.14 ± 0.15. As for `O[C@@H]1CO[C@H]2[C@@H]1OC[C@@H]2O` [Isosorbide], the “fraction” value stood at 0.127 ± 0.11. Same read-out and setting: as for `O=NN(CCCl)C(=O)NC1CCCCC1` [Lomustine (CeeNU)], the figure is 0.11 ± 0.13. Same read-out and setting: next, `O=C(O)c1cc(=O)c2ccccc2o1` [Chromocarb]: 0.115 ± 0.11.

For the molecule `CNC[C@@H](O)c1ccc(O)c(O)c1` [L-Adrenaline (Epinephrine)], the “fraction” value came out at 0.11 ± 0.072. On the same count and under the same terms, as for `CC(=O)[C@H]1CC[C@H]2[C@@H]3C[C@H](C)C4=CC(=O)CC[C@]4(C)[C@H]3[C@@H](O)C[C@]12C` [Medrysone], the figure is 0.0965 ± 0.045; as for `O=P(O)(O)C(O)(Cn1ccnc1)P(=O)(O)O` [Zoledronic Acid (Zoledronate)], 0.0993 ± 0.072. Same read-out and setting: as for `CN1CCC(=C2c3ccccc3C=Cc3ccccc32)CC1` [Cyproheptadine HCl (Periactin)], the figure is 0.114 ± 0.077; as for `N=C(N)NC(=N)NCCc1ccccc1` [Phenformin hydrochloride], 0.126 ± 0.065; as for `CNC(=O)CN(CCN(CCN(CC(=O)O)CC(=O)NC)CC(=O)O)CC(=O)O.O.[Gd]` [Gadodiamide (Omniscan)], 0.124 ± 0.082.

For the molecule `CCOc1ccc2nc(S(N)(=O)=O)sc2c1` [Ethoxzolamide], the “fraction” value amounted to 0.158 ± 0.12. `CN(C/C=C/C#CC(C)(C)C)Cc1cccc2ccccc12` [Terbinafine hydrochloride (Lamisil)]: the “fraction” value was 0.14 ± 0.099.

Regarding `CCCCCOC(=O)Nc1nc(=O)n([C@@H]2O[C@H](C)[C@@H](O)[C@H]2O)cc1F` [Capecitabine (Xeloda)], the “fraction” value was 0.11 ± 0.059. On the same count and under the same terms, as for `CCOC(=O)[C@H](CCc1ccccc1)N[C@@H](C)C(=O)N1Cc2ccccc2C[C@H]1C(=O)O` [Quinapril HCl (Accupril)], the figure is 0.0967 ± 0.097; as for `CC(C)(CO)[C@@H](O)C(=O)NCCC(=O)O` [Pantothenic acid (pantothenate)], 0.121 ± 0.074.

In the case of `CCOC(=O)C1=C[C@]2(CC)CCCN3CCc4c(n1c1ccccc41)[C@@H]32` [Vinpocetine (Cavinton)], the “fraction” value is 0.114 ± 0.074.

For `CS(=O)(=O)CCNCc1ccc(-c2ccc3ncnc(Nc4ccc(OCc5cccc(F)c5)c(Cl)c4)c3c2)o1` [Lapatinib], the “fraction” value was 0.106 ± 0.1. As for `CN(C)CCOc1ccc(/C(=C(/CCCl)c2ccccc2)c2ccccc2)cc1` [Toremifene Citrate (Fareston, Acapodene)], the “fraction” value was determined as 0.128 ± 0.097. Still for that read-out and setting: as for `CN(C)[C@@H]1C(O)=C(C(N)=O)C(=O)[C@@]2(O)C(O)=C3C(=O)c4c(O)cccc4[C@@](C)(O)[C@H]3[C@H](O)[C@@H]12` [Oxytetracycline (Terramycin)], the figure is 0.103 ± 0.059; as for `NC(=O)OCC(COC(N)=O)c1ccccc1` [Felbamate], 0.0983 ± 0.062; as for `O=C1CCc2cc(OCCCCc3nnnn3C3CCCCC3)ccc2N1` [Cilostazol], 0.0693 ± 0.048. Still for that read-out and setting: next, `O=C(O)C1=CO[C@@H](O[C@@H]2O[C@H](CO)[C@@H](O)[C@H](O)[C@H]2O)[C@@H]2C(CO)=CC[C@H]12` [Geniposidic acid]: 0.132 ± 0.078; `O=C1NC(=O)C(c2ccccc2)(c2ccccc2)N1` [Phenytoin (Lepitoin)]: 0.071 ± 0.042; `CCN1CC(CCN2CCOCC2)C(c2ccccc2)(c2ccccc2)C1=O` (stereo not given) [Doxapram HCl]: 0.102 ± 0.11. Same read-out and setting: as for `C[C@]12C=CC(=O)C=C1CC[C@@H]1[C@@H]2[C@@H](O)C[C@@]2(C)[C@H]1CC[C@]2(O)C(=O)CO` [Prednisolone (Hydroretrocortine)], the figure is 0.136 ± 0.11; as for `C[C@H](Cn1cnc2c(N)ncnc21)OCP(=O)(O)O` [Tenofovir (Viread)], 0.113 ± 0.088.

The test system of the next experiment is HeLa RPL29-GFP reporter. As to the kind of experiment: fraction of reporter-positive cells with nuclear (nucleolar or nucleolar/nucleoplasmic) RPL29-GFP (MainHitrate); higher = more cells with nucleolar/nuclear readout signal (for ENP1 -LMB: less RNAPI inhibition; for +LMB ENP1 and RP reporters: stronger nuclear/nucleolar retention, i.e. ribosome biogenesis defect). To be noted: concentration: 1 µM; treatment time: 6 h.
Turning to `COc1ccc2[nH]c([S@@+]([O-])Cc3ncc(C)c(OC)c3C)nc2c1` [Esomeprazole magnesium (Nexium)], the “fraction” value amounted to 0.227 ± 0.067. Still for that read-out and setting: as for `CCC(NC(C)C)C(O)c1ccc(O)c(O)c1` (stereo not given) [Isoetharine Mesylate], the figure is 0.285 ± 0.23; as for `O=C1CC[C@@H](C(=O)N2CSC[C@H]2C(=O)O)N1` [Pidotimod], 0.219 ± 0.062. The same measure, in the same setting: next, `O=C(NCCN1CCOCC1)c1ccc(Cl)cc1` [Moclobemide]: 0.201 ± 0.061.

With `C[C@H]1C[C@@H]2[C@H]([C@@H](O)C[C@@]3(C)[C@H]2CC[C@]3(O)C(=O)CO)[C@@]2(C)C=CC(=O)C=C12` [Methylprednisolone], the “fraction” value was determined as 0.216 ± 0.012. Still for that read-out and setting: as for `CCc1ccc(CCOc2ccc(CC3SC(=O)NC3=O)cc2)nc1` (stereo not given) [Pioglitazone (Actos)], the figure is 0.253 ± 0.074.

In the case of `NS(=O)(=O)c1cc(Cl)c(Cl)c(S(N)(=O)=O)c1` [Dichlorphenamide (Diclofenamide)], the “fraction” value was determined as 0.251 ± 0.076.

As for `O=P(O)(O)C(O)(Cc1cccnc1)P(=O)(O)O` [Risedronic acid (Actonel)], the “fraction” value stood at 0.168 ± 0.079.

`CC(C)(S)[C@@H](N)C(=O)O` [Penicillamine (Cuprimine)]: the “fraction” value was determined as 0.233 ± 0.074. Still for that read-out and setting: next, `CCCCN1CCCCC1C(=O)Nc1c(C)cccc1C` (stereo not given) [Bupivacaine hydrochloride (Marcain)]: 0.227 ± 0.09; `CC(C)OC(=O)OCOP(=O)(CO[C@H](C)Cn1cnc2c(N)ncnc21)OCOC(=O)OC(C)C` [Tenofovir Disoproxil Fumarate]: 0.184 ± 0.06; `CC(=O)Oc1ccccc1C(=O)O` [Aspirin (Acetylsalicylic acid)]: 0.215 ± 0.043.

Consider `O=C1O[C@H]([C@@H](O)CO)C([O-])=C1O.[Na+]` [Sodium ascorbate], for which the “fraction” value was determined as 0.464 ± 0.4. Consider `C=C1c2c(Cl)ccc(O)c2C(=O)C2=C(O)[C@]3(O)C(=O)C(C(N)=O)=C(O)[C@@H](N(C)C)[C@@H]3[C@@H](O)[C@H]12.O=C(O)c1cc(S(=O)(=O)O)ccc1O` [Meclocycline Sulfosalicylate], for which the “fraction” value came to 0.335 ± 0.27.

Take `O[C@@H]1CO[C@H]2[C@@H]1OC[C@@H]2O` [Isosorbide]: the “fraction” value worked out at 0.204 ± 0.043.

On to `O=NN(CCCl)C(=O)NC1CCCCC1` [Lomustine (CeeNU)], for which the “fraction” value was 0.25 ± 0.08.

On to `O=C(O)c1cc(=O)c2ccccc2o1` [Chromocarb], for which the “fraction” value amounted to 0.21 ± 0.073. Still for that read-out and setting: as for `CNC[C@@H](O)c1ccc(O)c(O)c1` [L-Adrenaline (Epinephrine)], the figure is 0.215 ± 0.057; as for `CC(=O)[C@H]1CC[C@H]2[C@@H]3C[C@H](C)C4=CC(=O)CC[C@]4(C)[C@H]3[C@@H](O)C[C@]12C` [Medrysone], 0.309 ± 0.22; as for `O=P(O)(O)C(O)(Cn1ccnc1)P(=O)(O)O` [Zoledronic Acid (Zoledronate)], 0.213 ± 0.058. As to `CN1CCC(=C2c3ccccc3C=Cc3ccccc32)CC1` [Cyproheptadine HCl (Periactin)], the “fraction” value is 0.223 ± 0.059. Same read-out and setting: as for `N=C(N)NC(=N)NCCc1ccccc1` [Phenformin hydrochloride], the figure is 0.215 ± 0.056. The same measure, in the same setting: as for `CNC(=O)CN(CCN(CCN(CC(=O)O)CC(=O)NC)CC(=O)O)CC(=O)O.O.[Gd]` [Gadodiamide (Omniscan)], the figure is 0.211 ± 0.068. As for `CCOc1ccc2nc(S(N)(=O)=O)sc2c1` [Ethoxzolamide], the “fraction” value turned out to be 0.303 ± 0.16.

As to `CN(C/C=C/C#CC(C)(C)C)Cc1cccc2ccccc12` [Terbinafine hydrochloride (Lamisil)], the “fraction” value is 0.247 ± 0.1. On the same count and under the same terms, as for `CCCCCOC(=O)Nc1nc(=O)n([C@@H]2O[C@H](C)[C@@H](O)[C@H]2O)cc1F` [Capecitabine (Xeloda)], the figure is 0.217 ± 0.046; as for `CCOC(=O)[C@H](CCc1ccccc1)N[C@@H](C)C(=O)N1Cc2ccccc2C[C@H]1C(=O)O` [Quinapril HCl (Accupril)], 0.26 ± 0.062; as for `CC(C)(CO)[C@@H](O)C(=O)NCCC(=O)O` [Pantothenic acid (pantothenate)], 0.233 ± 0.06.

In the case of `CCOC(=O)C1=C[C@]2(CC)CCCN3CCc4c(n1c1ccccc41)[C@@H]32` [Vinpocetine (Cavinton)], the “fraction” value was determined as 0.237 ± 0.076.

As for `CS(=O)(=O)CCNCc1ccc(-c2ccc3ncnc(Nc4ccc(OCc5cccc(F)c5)c(Cl)c4)c3c2)o1` [Lapatinib], the “fraction” value is 0.269 ± 0.08. Same read-out and setting: as for `CN(C)CCOc1ccc(/C(=C(/CCCl)c2ccccc2)c2ccccc2)cc1` [Toremifene Citrate (Fareston, Acapodene)], the figure is 0.206 ± 0.073; as for `CN(C)[C@@H]1C(O)=C(C(N)=O)C(=O)[C@@]2(O)C(O)=C3C(=O)c4c(O)cccc4[C@@](C)(O)[C@H]3[C@H](O)[C@@H]12` [Oxytetracycline (Terramycin)], 0.215 ± 0.074.

Take `NC(=O)OCC(COC(N)=O)c1ccccc1` [Felbamate]: the “fraction” value amounted to 0.224 ± 0.072.

As to `O=C1CCc2cc(OCCCCc3nnnn3C3CCCCC3)ccc2N1` [Cilostazol], the “fraction” value worked out at 0.265 ± 0.1. Still for that read-out and setting: as for `O=C(O)C1=CO[C@@H](O[C@@H]2O[C@H](CO)[C@@H](O)[C@H](O)[C@H]2O)[C@@H]2C(CO)=CC[C@H]12` [Geniposidic acid], the figure is 0.246 ± 0.075; as for `O=C1NC(=O)C(c2ccccc2)(c2ccccc2)N1` [Phenytoin (Lepitoin)], 0.218 ± 0.061; as for `CCN1CC(CCN2CCOCC2)C(c2ccccc2)(c2ccccc2)C1=O` (stereo not given) [Doxapram HCl], 0.199 ± 0.02. Same read-out and setting: as for `C[C@]12C=CC(=O)C=C1CC[C@@H]1[C@@H]2[C@@H](O)C[C@@]2(C)[C@H]1CC[C@]2(O)C(=O)CO` [Prednisolone (Hydroretrocortine)], the figure is 0.233 ± 0.062.

For `C[C@H](Cn1cnc2c(N)ncnc21)OCP(=O)(O)O` [Tenofovir (Viread)], the “fraction” value turned out to be 0.203 ± 0.077.
